Assay results from PMC8468827.
No constants are given. Whether binding was seen depends on the method and setting. In cells and extracts the contact can be indirect. A result given as binding can be weak or reduced; the word gives no strength.

Amino acid sequences for entries named in this document (tags omitted). A change or cut given only in a name is not applied to a line headed by its entry.
UniProt Q9VQ93: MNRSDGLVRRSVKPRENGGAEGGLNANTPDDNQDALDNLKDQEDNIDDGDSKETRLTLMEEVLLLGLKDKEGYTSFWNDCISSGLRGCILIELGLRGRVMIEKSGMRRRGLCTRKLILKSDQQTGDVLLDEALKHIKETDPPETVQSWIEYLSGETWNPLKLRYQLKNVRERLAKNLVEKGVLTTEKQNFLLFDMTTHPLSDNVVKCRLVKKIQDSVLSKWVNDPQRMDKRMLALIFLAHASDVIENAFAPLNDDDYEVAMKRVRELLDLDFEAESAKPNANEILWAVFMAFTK
UniProt A1Z7J7: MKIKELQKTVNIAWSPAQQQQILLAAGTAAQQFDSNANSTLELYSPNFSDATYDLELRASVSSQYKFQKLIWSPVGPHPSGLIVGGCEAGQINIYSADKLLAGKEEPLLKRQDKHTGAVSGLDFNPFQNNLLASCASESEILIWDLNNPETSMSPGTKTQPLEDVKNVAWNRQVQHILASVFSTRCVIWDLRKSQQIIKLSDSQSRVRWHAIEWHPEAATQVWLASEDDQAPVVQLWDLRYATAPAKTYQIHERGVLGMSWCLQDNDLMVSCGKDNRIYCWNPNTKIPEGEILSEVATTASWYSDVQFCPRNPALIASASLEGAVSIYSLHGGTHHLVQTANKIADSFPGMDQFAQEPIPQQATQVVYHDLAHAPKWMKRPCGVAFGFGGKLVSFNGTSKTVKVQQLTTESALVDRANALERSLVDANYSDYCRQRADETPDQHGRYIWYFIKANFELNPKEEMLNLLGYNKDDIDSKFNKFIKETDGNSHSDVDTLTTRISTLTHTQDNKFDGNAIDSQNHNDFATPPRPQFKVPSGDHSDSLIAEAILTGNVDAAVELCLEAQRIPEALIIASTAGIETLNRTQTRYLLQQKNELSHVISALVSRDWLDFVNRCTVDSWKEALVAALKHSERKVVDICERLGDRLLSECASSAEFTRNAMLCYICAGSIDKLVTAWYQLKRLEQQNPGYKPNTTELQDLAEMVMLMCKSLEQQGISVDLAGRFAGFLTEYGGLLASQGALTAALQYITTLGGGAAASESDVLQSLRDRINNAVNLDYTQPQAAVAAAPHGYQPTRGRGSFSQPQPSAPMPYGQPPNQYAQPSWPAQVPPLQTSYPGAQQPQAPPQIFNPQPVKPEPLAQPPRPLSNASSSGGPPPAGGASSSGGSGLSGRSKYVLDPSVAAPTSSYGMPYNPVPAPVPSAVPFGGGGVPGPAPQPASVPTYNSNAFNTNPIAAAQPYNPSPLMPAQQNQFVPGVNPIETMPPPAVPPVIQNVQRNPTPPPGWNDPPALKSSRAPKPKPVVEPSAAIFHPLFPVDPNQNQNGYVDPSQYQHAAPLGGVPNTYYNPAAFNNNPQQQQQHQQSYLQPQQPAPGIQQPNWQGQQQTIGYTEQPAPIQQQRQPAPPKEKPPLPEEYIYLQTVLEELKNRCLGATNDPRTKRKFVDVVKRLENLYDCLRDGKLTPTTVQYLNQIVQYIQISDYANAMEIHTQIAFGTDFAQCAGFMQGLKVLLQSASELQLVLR

Biological target: GST-dGOLPH3 (Drosophila) (UniProt Q9VQ93)
Test: pull-down; GST or GST-dGOLPH3 bound to glutathione-Sepharose 4B beads, incubated with testis lysate at 4 °C for 2 h; wash buffer 25 mM Tris-HCl pH 7.4, 150 mM NaCl, 1% NP-40, 1 mM EDTA; Western blot; only the target purified

Sec31 (from UniProt A1Z7J7) was tested, and the binding was “binds”.
